According to US9682977B2, “Bicyclic heteroaryl indole analogues useful as ROR gamma modulators” (Glenmark Pharmaceuticals S.A., priority 2013, dated 2017):

Biological target: T1, GST-tagged ROR gamma ligand binding domain (LBD) (Homo sapiens, UniProt P51449)
T1 construct: purchased Invitrogen
T1 sequence (P51449 269-508 limits assumed): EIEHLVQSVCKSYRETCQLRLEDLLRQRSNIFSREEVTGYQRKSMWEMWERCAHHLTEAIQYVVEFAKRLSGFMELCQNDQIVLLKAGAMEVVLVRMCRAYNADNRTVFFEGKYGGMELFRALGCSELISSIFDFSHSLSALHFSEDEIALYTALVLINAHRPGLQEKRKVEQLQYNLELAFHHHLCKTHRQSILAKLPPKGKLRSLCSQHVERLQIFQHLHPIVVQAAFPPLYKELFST
Test: TR-FRET assay for ROR gamma (Lantha Screen, co-activator peptide recruitment)
Format: biochemical
Conditions: for inhibition at 1 µM: read-out: % inhibition at 1 μM; for inhibition at 10 µM: read-out: % inhibition at 10 μM

Row | SMILES | IC50 [nM] | inhibition at 1 µM [%] | inhibition at 10 µM [%]
1 | O=C(O)c1ccc(-n2cc(C(=O)c3c(Cl)cccc3Cl)c3ccccc32)c(F)c1 [Example 19, 4-{3-[(2,6-Dichlorophenyl)carbonyl]-1H-indol-1-yl}-3-fluorobenzoic acid] | < 50 | 94.5 | 94.9
2 | O=C(O)c1ccc(-n2cc(C(=O)c3c(Cl)cccc3Cl)c3cccc(F)c32)c(F)c1 [Example 25, 4-[3-(2,6-Dichlorobenzoyl)-7-fluoro-1H-indol-1-yl]-3-fluorobenzoic acid] | – | 96.3 | 94.2
